Results taken from patent US9029325B2, “Amylin analogues and pharmaceutical compositions thereof” (Novo Nordisk A/S, priority 2011, dated 2015).
Not every detail of the peptide structures is certain; ends, links or a residue may be inferred. Starred links: 1 amine or outer side, 2 acyl side, 3 side chain; linkers in the order of their positions; H or OH if unused. Positions of bridges follow the written chain, without caps; N, C: chain ends. Non-standard residues stand in square brackets, D forms with d. Residues, ends and D or L forms follow the SMILES beside them. Groups on a side chain read outwards from the residue. *: point of attachment. C20 diacid = O=C(O)CCCCCCCCCCCCCCCCCCC(=O)*; γGlu = O=C(O)[C@H](CCC(=O)[*:2])N[*:1]; AEEA = NCCOCCOCC(=O)O

Experiment: Assay (I) efficacy testing on appetite (food intake), ad libitum fed rat model
Type: in vivo, Sprague Dawley (SD) rats
Source text: Sprague Dawley (SD) rats from Taconic Europe, Denmark are used for the experiments. The rats have a body weight 200-250 g at the start of experiment. The rats arrive at least 10-14 days before start of experiment to allow acclimatization to experimental settings. During this period the animals are handled at least 2 times. After arrival rats are housed individually for one week in a reversed light/dark phase (meaning that lights are off during daytime and on during nighttime) […]. Since rats are normally active and eat their major part of their daily food intake during the dark period, rats are dosed in the morning right before lights are turned off. This set-up results in the lowest data variation and highst test sensitivity. The experiment is conducted in the rats' home cages and rats have free access to food and water througout the acclimatization period and the experiment period. Each dose of derivative is tested in a group of 5-8 rats. A vehicle group of 6-8 rats is included in each set of testing. Rats are dosed once according to body weight with a 0.01-3 mg/kg solution administered intraperitoneally (ip), orally (po) or subcutaneously (sc). The time of dosing is recorded for each group. After dosing, the rats are returned to their home cages, where they then have access to food and water. The food consumption is recorded individually continuously by on-line registration or manually every hour for 7 hours, and then after 24 h and sometimes 48 h. At the end of the experimental session, the animals are euthanised.
The individual data are recorded in Microsoft excel sheets. Outliers are excluded after applying the Grubbs statistical evaluation test for outliers, and the result is presented graphically using the GraphPad Prism program.

| SMILES | Food intake reduction 0-24 h 3 nmol/kg (%) | Food intake reduction 24-48 h 3 nmol/kg (%) |
| --- | --- | --- |
| CC[C@H](C)[C@H](NC(=O)[C@@H]1CCCN1C(=O)CNC(=O)[C@H](Cc1ccccc1)NC(=O)[C@H](CC(N)=O)NC(=O)[C@H](CCCCNC(=O)COCCOCCNC(=O)COCCOCCNC(=O)CC[C@H](NC(=O)CCCCCCCCCCCCCCCCCCC(=O)O)C(=O)O)NC(=O)[C@H](CO)NC(=O)[C@H](CO)NC(=O)[C@H](CCCNC(=N)N)NC(=O)[C@H](Cc1c[nH]cn1)NC(=O)[C@H](CC(C)C)NC(=O)[C@H](Cc1ccccc1)NC(=O)[C@H](CCC(=O)O)NC(=O)[C@H](C)NC(=O)[C@H](CC(C)C)NC(=O)[C@H](CCCNC(=N)N)NC(=O)[C@H](CCC(N)=O)NC(=O)[C@@H](NC(=O)[C@H](C)NC(=O)[C@@H]1CSSC[C@H](NC(=O)[C@@H](N)CCCNC(=N)N)C(=O)N[C@@H](CC(N)=O)C(=O)N[C@@H]([C@@H](C)O)C(=O)N[C@@H](C)C(=O)N[C@@H]([C@@H](C)O)C(=O)N1)[C@@H](C)O)C(=O)N[C@@H](CC(C)C)C(=O)N1CCC[C@H]1C(=O)N1CCC[C@H]1C(=O)N[C@H](C(=O)N[C@@H](CC(N)=O)C(=O)N[C@H](C(=O)NCC(=O)N[C@@H](CO)C(=O)N[C@@H](CC(N)=O)C(=O)N[C@H](C(=O)N[C@@H](Cc1ccc(O)cc1)C(N)=O)[C@@H](C)O)C(C)C)[C@@H](C)O [compound 14] (H-RCNTATCATQRLAEFLHRSSK([AEEA-AEEA-γGlu-C20 diacid])NFGPILPPTNVGSNTY-NH2; disulfide 2-7) | 27 | 8 |
| CC[C@H](C)[C@H](NC(=O)[C@@H]1CCCN1C(=O)CNC(=O)[C@H](Cc1ccccc1)NC(=O)[C@H](CC(N)=O)NC(=O)[C@H](CC(N)=O)NC(=O)[C@H](CO)NC(=O)[C@H](CO)NC(=O)[C@H](CCCNC(=N)N)NC(=O)[C@H](Cc1c[nH]cn1)NC(=O)[C@H](CC(C)C)NC(=O)[C@H](Cc1ccccc1)NC(=O)[C@H](CCC(=O)O)NC(=O)[C@H](C)NC(=O)[C@H](CC(C)C)NC(=O)[C@H](CCCNC(=N)N)NC(=O)[C@H](CCC(N)=O)NC(=O)[C@@H](NC(=O)[C@H](C)NC(=O)[C@@H]1CSSC[C@H](NC(=O)[C@H](CCCCN)NC(=O)[C@@H](CCCNC(=N)N)NC(=O)[C@@H](CCCNC(=N)N)NC(=O)COCCOCCNC(=O)COCCOCCNC(=O)CC[C@H](NC(=O)CCCCCCCCCCCCCCCCCCC(=O)O)C(=O)O)C(=O)N[C@@H](CC(N)=O)C(=O)N[C@@H]([C@@H](C)O)C(=O)N[C@@H](C)C(=O)N[C@@H]([C@@H](C)O)C(=O)N1)[C@@H](C)O)C(=O)N[C@@H](CC(C)C)C(=O)N1CCC[C@H]1C(=O)N1CCC[C@H]1C(=O)N[C@H](C(=O)N[C@@H](CC(N)=O)C(=O)N[C@H](C(=O)NCC(=O)N[C@@H](CO)C(=O)N[C@@H](CC(N)=O)C(=O)N[C@H](C(=O)N[C@@H](Cc1ccc(O)cc1)C(N)=O)[C@@H](C)O)C(C)C)[C@@H](C)O [compound 37] ({C20 diacid-γGlu-AEEA-AEEA}-[dR][dR]KCNTATCATQRLAEFLHRSSNNFGPILPPTNVGSNTY-NH2; disulfide 4-9) | 24 | 0 |
| CC[C@H](C)[C@H](NC(=O)[C@@H]1CCCN1C(=O)CNC(=O)[C@H](Cc1ccccc1)NC(=O)[C@H](CC(N)=O)NC(=O)[C@H](C)NC(=O)[C@H](CO)NC(=O)[C@H](CO)NC(=O)[C@H](CCCNC(=N)N)NC(=O)[C@H](Cc1c[nH]cn1)NC(=O)[C@H](CC(C)C)NC(=O)[C@H](Cc1ccccc1)NC(=O)[C@H](CCC(=O)O)NC(=O)[C@H](C)NC(=O)[C@H](CC(C)C)NC(=O)[C@H](CCCNC(=N)N)NC(=O)[C@H](CCC(N)=O)NC(=O)[C@@H](NC(=O)[C@H](C)NC(=O)[C@@H]1CSSC[C@H](NC(=O)[C@H](CCCCN)NC(=O)[C@@H](CCCNC(=N)N)NC(=O)[C@@H](CCCNC(=N)N)NC(=O)COCCOCCNC(=O)COCCOCCNC(=O)CC[C@H](NC(=O)CCCCCCCCCCCCCCCCCCC(=O)O)C(=O)O)C(=O)N[C@@H](CC(N)=O)C(=O)N[C@@H]([C@@H](C)O)C(=O)N[C@@H](C)C(=O)N[C@@H]([C@@H](C)O)C(=O)N1)[C@@H](C)O)C(=O)N[C@@H](CC(C)C)C(=O)N1CCC[C@H]1C(=O)N1CCC[C@H]1C(=O)N[C@H](C(=O)N[C@@H](CC(N)=O)C(=O)N[C@H](C(=O)NCC(=O)N[C@@H](CO)C(=O)N[C@@H](CO)C(=O)N[C@H](C(=O)N[C@@H](Cc1ccc(O)cc1)C(N)=O)[C@@H](C)O)C(C)C)[C@@H](C)O [compound 38] ({C20 diacid-γGlu-AEEA-AEEA}-[dR][dR]KCNTATCATQRLAEFLHRSSANFGPILPPTNVGSSTY-NH2; disulfide 4-9) | 16 | 0 |
